Binding data for 2 molecules are collected here from publication PMC3232247.

Sequences of proteins named here, by UniProt entry; tags and fusion partners are left off. Residues count along the entry.
UniProt P55854, residues 1-92: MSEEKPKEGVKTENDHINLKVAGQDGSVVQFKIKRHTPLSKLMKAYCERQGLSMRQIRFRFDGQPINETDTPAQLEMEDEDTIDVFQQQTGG
UniProt P63165, residues 1-97: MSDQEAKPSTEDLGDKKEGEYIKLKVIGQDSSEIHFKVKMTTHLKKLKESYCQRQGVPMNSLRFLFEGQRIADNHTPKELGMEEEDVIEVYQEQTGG
UniProt P04897: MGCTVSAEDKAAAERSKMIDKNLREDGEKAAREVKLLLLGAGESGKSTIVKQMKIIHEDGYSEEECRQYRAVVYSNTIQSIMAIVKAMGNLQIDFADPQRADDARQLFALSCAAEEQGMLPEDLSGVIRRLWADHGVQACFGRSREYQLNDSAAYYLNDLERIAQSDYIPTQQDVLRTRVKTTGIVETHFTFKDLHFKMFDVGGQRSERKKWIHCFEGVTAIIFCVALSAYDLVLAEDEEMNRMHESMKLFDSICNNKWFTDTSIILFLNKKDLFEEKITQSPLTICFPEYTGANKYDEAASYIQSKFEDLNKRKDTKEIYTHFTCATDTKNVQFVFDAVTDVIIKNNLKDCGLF

The target of experiment [1] is T1, RGSZ2 (regulator of G protein signaling 17), recombinant, GST-free (murine) (UniProt Q9QZB0).
T1 sequence: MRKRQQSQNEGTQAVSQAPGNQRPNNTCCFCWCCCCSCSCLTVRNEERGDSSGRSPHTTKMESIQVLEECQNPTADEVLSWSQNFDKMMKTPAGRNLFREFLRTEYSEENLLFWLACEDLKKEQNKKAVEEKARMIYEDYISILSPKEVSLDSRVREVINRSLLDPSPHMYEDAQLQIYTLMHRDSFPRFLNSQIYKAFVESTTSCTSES
Kind of experiment: co-IP; single turnover GTPase reaction of GTP-loaded Gαi with RGSZ2 and increasing concentrations of free SUMO1; at 60 s RGSZ2 immunoprecipitated (CT antibody), Western blot with anti-Gαi antibody; both purified.

Experiment [2] addresses SUMO3 (UniProt P55854). Kind of experiment: pull-down; SUMO1-, SUMO2- or SUMO3-agarose incubated with the recombinant protein for 2 h at room temperature in 50 mM HEPES pH 8.0, 1 mM EDTA, 1 mM DTT, 0.05% C12E10; washed beads boiled, immunoblot; both purified.
The target of experiment [3] is SUMO1 (Small Ubiquitin-like MOdifier 1) (UniProt P63165). The description is as above.
Experiment [4] concerns the target SUMO3 (UniProt P55854). The experiment is described as above. The source holds these as a separate data set.
For experiment [5], the target named is SUMO1 (Small Ubiquitin-like MOdifier 1) (UniProt P63165). The description is as above. The source holds these as a separate data set.

Read-outs that look alike come from different tables or passages of the source. No constants are given. Whether binding was seen depends on the method and setting. Some results given as binding are weak or reduced against the parent protein; the word gives no strength. For some assays here: Where a sequence is shown, tags or fusion partners need not be part of it.

Regarding “Gαi2 subunit (from UniProt P04897 1-355)”, the binding result in experiment [1] is “binds”; in the experiment with SUMO3 [2] it was “no binding”; in experiment [3], “no binding”.

B1: RGSZ2 (regulator of G protein signaling 17), recombinant, GST-free (protein, UniProt Q9QZB0 1-210)
chain: T1 sequence
On to B1, for which the binding entry (with SUMO3 [4]; in experiment [5]) was “binds” each time.
